Source: publication PMC8465852, “The HMGB Protein KlIxr1, a DNA Binding Regulator of Kluyveromyces lactis Gene Expression Involved in Oxidative Metabolism, Growth, and dNTP Synthesis”
The exact form of at least one protein or probe is not confirmed. The comparison behind a weaker result is the experiment's own reference, which may not be listed here. At least one verdict was read from the data and is not stated in words by the source. Tags and fusion partners may be left off the protein sequences shown.

Biological target: T1, KlIxr1 (Kluyveromyces lactis) (UniProt Q6CMQ4)
T1 sequence (looked up): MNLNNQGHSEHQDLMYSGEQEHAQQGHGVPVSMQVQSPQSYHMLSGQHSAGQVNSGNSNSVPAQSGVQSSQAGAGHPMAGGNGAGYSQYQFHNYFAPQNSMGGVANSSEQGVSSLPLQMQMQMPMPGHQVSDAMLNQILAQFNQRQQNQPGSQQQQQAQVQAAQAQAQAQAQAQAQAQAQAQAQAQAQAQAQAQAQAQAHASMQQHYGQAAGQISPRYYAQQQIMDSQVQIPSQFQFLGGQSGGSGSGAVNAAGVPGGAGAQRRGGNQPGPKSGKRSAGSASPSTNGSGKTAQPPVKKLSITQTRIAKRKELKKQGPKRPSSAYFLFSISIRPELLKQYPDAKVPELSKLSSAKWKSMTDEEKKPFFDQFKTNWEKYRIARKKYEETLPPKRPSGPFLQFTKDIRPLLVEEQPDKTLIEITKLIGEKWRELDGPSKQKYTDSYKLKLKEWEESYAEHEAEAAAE
Test: competition with a labelled probe
Settings: 200 nM protein, EMSA: 4 C 30 min, 500 nM DNA, 1 ug protein, 1 ug calf thymus DNA, buffer by reference, recombinant protein, residues …, protein details: N-terminal 6xHis, label: none (competitor)

| Sequence | binding result (FA vs labeled HEM13A) | binding result (FA vs labeled HEM13B) |
| --- | --- | --- |
| ATCTTGAATGTATGTGCGCACAGCCTCTCC (double strand) [HEM13A mutant] | binds more weakly | – |
| TGGCCCAGCCTCTTGCGCACTCGTACCGGT (double strand) [HEM13B mutant] | – | binds more weakly |
